“And” between values parts separate entries of the source, which are not always exact repeats. Equal values may be shown once. The campaign covered roughly 320,000 compounds. About 2,100 (0.66%) were called active. Inconclusive means that the source gave no clear call. Such entries were picked first, then a sample of the others. Calls come from the whole dose curve; as a rule, active = well fitted inhibition curve with a large enough effect in the signal ratio, with a control signal flat (not every such curve was filed as active); inconclusive = small, poorly fitted or top-dose-only effect, or effect the other way, or a change in a side signal; inactive = flat fitted curve, though single readings scatter; the % refers to the signal ratio. Potencies beside an inconclusive call are fits to weak or partial responses and may not hold up.
assay: qHTS Assay for Lipid Storage Modulators in Drosophila S3 Cells; details: BODIPY lipid droplet fluorescence, 18-24 h, cells fed with added oleic acid; lipid storage change, negative = inhibition: at 46.1 µM (top of the series) unless noted
Outline: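 Drosophila S3 cells got compounds at several concentrations plus oleic acid (400 uM solution). Laser-scanning cytometry with 488 nm excitation read lipid droplets at 500-530 nm and cells at 575-640 nm. Percent activity was relative to 20 uM Triacsin C.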
% is set by controls: 0 for no effect and ±100 for the full control effect; potency is the fitted concentration of half-maximal effect.

Structure (SMILES) | Potency | lipid storage change, negative = inhibition
O=C(CSc1ccc2c(c1)OCCO2)Nc1cccc(S(=O)(=O)N2CCCCC2)c1 | inconclusive: 29.1 µM [rising, single point] | –
Brc1ccc(-c2nnc3c4ccccc4nc(N4CCOCC4)n23)cc1 | inconclusive: 1.16 µM [activator, partial curve] | –
Cn1cnnc1SCC(=O)Nc1ccc(S(=O)(=O)N2CCOCC2)cc1 | inconclusive: 18.4 µM [activator, single point] | –
CC1(C)CC(=O)C=C(Nc2ccccc2C#N)C1 | – | inconclusive: -13.1%
O=C(NCc1ccccc1)c1ccc(CN(c2ccccn2)S(=O)(=O)c2ccccc2)cc1 | – | inconclusive: -14.7%
Cc1onc(-c2ccc(Cl)cc2Cl)c1-c1csc(N/N=C/c2ccccc2)n1 | – | inconclusive: 9.8%
C/C(=N/NS(=O)(=O)c1cccc([N+](=O)[O-])c1)c1ccncc1 | – | inconclusive: -13.9%
Cc1ccnc(NS(=O)(=O)c2ccc(NC(=O)c3ccc(S(=O)(=O)N4CCOCC4)cc3)cc2)n1 | – | inconclusive: -13.2%
CCN1C(=NCCOC)N[C@@H](CCc2ccccc2)[C@H](C(=O)OC)[C@H]1C | – | inconclusive: -16.2% and inconclusive: 13.2%
COCCNC(=O)/C(C#N)=C/c1ccccc1Br | – | inconclusive: -43.1% [cytotoxic] [at 0.00295 µM]
O=C(CN(C(=O)c1csnn1)c1ccc(Br)cc1)NC1CCCCC1 | – | inconclusive: 67.7%
COc1ccccc1C(=O)N1CCN(C(=O)c2oc3ccc(C)cc3c2C)CC1 | inconclusive: 0.58 µM [rising, single point] | –
O=C(O)Cc1ccc(NC(=O)c2ccc3c(c2)C(=O)N(Cc2ccco2)C3=O)cc1 | inconclusive: 0.0259 µM [activator, full curve, poor fit] | –
Cc1ccsc1C(=O)NN=C1CCCCCC1 | – | inconclusive: -23%
CCOC(=O)C1=C(C)N(C)C(=O)NC1c1cccc(O)c1 (stereo not given) | – | inactive
O=C1c2cccnc2C(=O)N1Cc1ccc(F)cc1S(=O)(=O)NCc1ccco1 | – | inconclusive: 21.7%
O=C(NNC(=O)c1ccccc1Cl)c1csc(N2CCOCC2)n1 | – | inconclusive
CCN1C(=O)[C@H]2[C@@H](c3ccc(C)cc3)N3C(=O)N(c4cccc(C)c4)C(=O)[C@@]3(Cc3ccccc3)[C@H]2C1=O | – | inconclusive: -24.8%
O=C(COc1ccc(/C=N/NS(=O)(=O)c2ccccc2)cc1)NCCc1ccccc1 | inconclusive: 29.1 µM [falling, single point] | –
COCCCNc1nc2c(c(=O)n(Cc3ccc(OC)cc3)c(=O)n2C)n1C | – | inconclusive: 13.8%
N=c1c(C(=O)NCc2ccccc2)cc2c(=O)n3ccccc3nc2n1CCCN1CCOCC1 | – | inactive
CCN1C(=O)C(=O)N(CC(=O)N(C)CC(=O)Nc2ccccc2Cl)C1=O | – | inconclusive: 0.351%
Cc1cc(CC(=O)O)c(C)cc1CC(=O)O | – | inconclusive: -0.0017%
COc1ccc(S(N)(=O)=O)cc1C(=O)NCCCN1CCN(c2ccccc2OC)CC1 | – | inconclusive: 0.526%
Cc1cc(C)cc(N(CC(=O)NC2CCCCC2)C(=O)CCCC(=O)Nc2ccccn2)c1 | inconclusive: 29.1 µM [activator, single point] | –

Molecules from the list above that contain a cyano group, in the order listed:
Structure (SMILES) | Potency | lipid storage change, negative = inhibition
CC1(C)CC(=O)C=C(Nc2ccccc2C#N)C1 | – | inconclusive: -13.1%
COCCNC(=O)/C(C#N)=C/c1ccccc1Br | – | inconclusive: -43.1% [cytotoxic] [at 0.00295 µM]

Remaining list, next part:

Structure (SMILES) | Potency | lipid storage change, negative = inhibition
O=S(=O)(c1ccc2c(c1)CCN2)N1CCCC1 | inconclusive: 23.1 µM [activator, partial curve] | –
Cc1ccc(/C=N/NC(=O)c2nnn(-c3nonc3N)c2-c2cccs2)cc1 | inconclusive: 7.31 µM [activator, partial curve] | –
O=c1c(Br)c(N2CCCC2)cnn1-c1ccccc1 | – | inconclusive: 11.7%
COc1ccc2c(c1)c(=O)oc1c(C)c(OCc3ccc(C(=O)O)cc3)ccc12 | inconclusive: 29.1 µM [activator, partial curve, poor fit] | –
FC(F)(F)c1cccc(NC(=S)Nc2ccc(Cl)c(Cl)c2)c1 | inconclusive: 29.1 µM [falling, single point] | –
CC(=O)N1c2ccc(S(=O)(=O)N3CCCC3)cc2CC1C(=O)NCc1ccc(N(C)C)cc1 (stereo not given) | – | inactive
COc1ccc(CCN=C(N)NS(=O)(=O)c2cccs2)cc1OC | – | inconclusive: -0.066%
Cc1cccc(OCC(=O)Nc2ccc(N3CCN(C(=O)c4ccccc4)CC3)cc2)c1 | – | inconclusive: 8.09%
CCCc1cc(-c2nc(-c3ccc(Cl)cc3)cs2)ccn1 | inconclusive: 18.4 µM [falling, single point] | –
CCOC(=O)c1nc(C)sc1-c1ccnn1S(=O)(=O)c1ccc(C)cc1 | – | inconclusive: -65.3%
O=C(O)CSC(=S)N1CCCCC1 | inconclusive: 2.06 µM [rising, single point] | –
O=C(Nc1cccc(Cl)c1)NC1CC2CCC1C2 (stereo not given) | – | inconclusive: -61%
COC(=O)c1cc(-c2ccc(Br)cc2)on1 | – | inconclusive: -30.4%
CCOc1ccccc1N1C(=O)CC(Nc2ccc(N3CCOCC3)cc2)C1=O (stereo not given) | inconclusive: 0.0046 µM [activator, full curve] | –
Cc1cccc(N=C2NN=C(c3ccccc3F)CS2)c1C | – | inconclusive: 11.7%
COC(=O)c1cc(=O)nc2sc3cc(OC)ccc3n12 | – | inconclusive: 5.97%
COc1ccc(C(=O)N(CC(=O)NC(C)(C)C)c2ccc3c(c2)OCCO3)cc1OC | inconclusive: 29.1 µM [activator, single point] | –
Cc1cccnc1NC(=O)CCc1c[nH]c2ccccc12 | – | inconclusive: 13.6%
O=C(NC1CCCCC1)C(c1cccs1)N(Cc1cccs1)C(=O)c1ccco1 (stereo not given) | inconclusive: 29.1 µM [falling, single point] | –
O=C1CC(C(=O)Nc2ccc(Cl)cc2)n2ncnc2N1 (stereo not given) | – | inconclusive: -72.6%
COc1ccc(-c2nnc(-c3cccnc3)o2)cc1OC | inconclusive: 29.1 µM [activator, single point] | –
COc1ccc(-c2cc(C(F)(F)F)n3nc(C(=O)N4CCOCC4)nc3n2)cc1 | – | inconclusive: 17.2%
CN(C)/C=N/c1[nH]ncc1C#N | – | inconclusive: -32.6%
CC12CCC(C)(c3nc4ccccc4nc31)C2(C)C | – | inconclusive: 96.5%
Cn1nc(C(C)(C)C)c([N+](=O)[O-])c1C(=O)NC(C)(C)C | – | inconclusive: -1.02%

Structure (SMILES) | Potency | lipid storage change, negative = inhibition
COc1ccccc1OCCNC(=O)C1CC(=O)N(Cc2ccccc2)C1 (stereo not given) | inconclusive: 3.26 µM [activator, partial curve] | –
COc1ccccc1C(=O)NC(=O)COc1cc(Cl)ccc1Cl | – | inconclusive: 30.4%
Cc1cc(NC(=O)c2ccc(Cl)cc2)n(CCC#N)n1 | inconclusive: 6.51 µM [activator, single point] | –
O=C(CCCOc1ccc(Cl)cc1)N1CCOCC1 | – | inconclusive: -11.1%
CCc1cc(C(=O)Nc2cc(S(=O)(=O)N(CC)CC)ccc2N2CCOCC2)sc1C | inconclusive: 0.13 µM [falling, full curve, poor fit] | –
COc1ccc(-c2nnc(SCC(=O)N3CCCCC3)o2)cc1OC | – | inconclusive: 52.5%
COc1ccc(CC(=O)NNS(=O)(=O)c2ccccc2[N+](=O)[O-])cc1OC | inconclusive: 6.51 µM [falling, single point] | –
COc1ccc(N2C(=O)CC(N3CCN(S(=O)(=O)c4cc(C)ccc4C)CC3)C2=O)cc1 (stereo not given) | – | inconclusive: -18.3%
CCSc1sccc1C1C(C#N)=C(N)N(c2cccnc2)C2=C1C(=O)CC(C)(C)C2 (stereo not given) | inconclusive: 0.231 µM [activator, partial curve] | –
Cc1[nH]c2ccccc2c1C(c1ccccn1)N1CCC(C(N)=O)CC1 (stereo not given) | – | inactive
COC(=O)c1ccc(COC(=O)C2CCN(S(=O)(=O)c3c(Cl)cccc3Cl)CC2)o1 | – | inconclusive: -50.1%
Cc1nn(-c2ccccc2)c(Cl)c1CN(C(=O)CCl)c1ccc(Cl)cc1 | inconclusive: 9.2 µM [falling, partial curve, poor fit] | –
O=C(CSc1nnc(-c2ccc3c(c2)OCCO3)o1)N1CCCC1 | – | inconclusive: -36.7%
C=CCn1c(CCC)nc2ccccc21 | – | inconclusive: -18.4%
CCOC(=O)Cn1nc(C)n(-c2ccc(F)cc2)c1=O | – | inconclusive: -73.3% [cytotoxic] [at 0.00295 µM]
CCOC(=O)COc1ccccc1C(=O)c1cnn(-c2ccccc2)c1 | – | inactive
COC(=O)c1ccc(C)c(NC(=O)CCSc2ccccc2)c1 | inconclusive: 29.1 µM [falling, single point] | –
CC(=O)Nc1ccc(S(=O)(=O)NCCC(=O)N2CCC(Cc3ccccc3)CC2)cc1 | – | inconclusive: -57.6%
COc1ccc(C2(O)CCN(C(=O)c3c(F)cccc3F)CC2)cc1 | inconclusive: 4.11 µM [falling, full curve, poor fit] | –
C(=N\C(/N=C/c1ccco1)c1ccco1)/c1ccco1 | – | inconclusive: 4.01%
CS(=O)(=O)c1ccc2nc(NC(=O)CN3C(=O)NC4(CCCC4)C3=O)sc2c1 | inconclusive: 29.1 µM [activator, single point] | –
O=C(c1ccc(F)cc1)N1CCN(C2CC3CCC2C3)CC1 (stereo not given) | – | inconclusive: -34.6%
Cc1ccc(S(=O)(=O)NCc2ccccc2)s1 | – | inconclusive: -31.4%
O=C(OCC(=O)N1CCCc2ccccc21)c1cc(S(=O)(=O)N2CCOCC2)ccc1F | inconclusive: 0.0092 µM [activator, full curve, poor fit] | –
COc1ccc(OC)c(NC(=O)c2cc(-c3cc(Cl)ccc3O)n[nH]2)c1 | – | inconclusive: -2.29%

Among those listed so far, two contain a tert-butyl group.
Structure (SMILES) | Potency | lipid storage change, negative = inhibition
COc1ccc(C(=O)N(CC(=O)NC(C)(C)C)c2ccc3c(c2)OCCO3)cc1OC | inconclusive: 29.1 µM [activator, single point] | –
Cn1nc(C(C)(C)C)c([N+](=O)[O-])c1C(=O)NC(C)(C)C | – | inconclusive: -1.02%

From PubChem BioAssay AID2685 (National Center for Advancing Translational Sciences (NCATS), 2010)
